# According to PubChem BioAssay AID540256 (National Center for Advancing Translational Sciences (NCATS), 2011):
# Hit rate of the full screen: of about 300,000 compounds, about 3,700 (1.2%) were called active. Inconclusive results, whose numbers are uncertain, are shown with a selection of clear calls. The call rests on the fitted dose curve; tested in HEK293 cells. Potencies beside an inconclusive call are fits to weak or partial responses and may not hold up.
# Test: qHTS for Inhibitors of binding or entry into cells for Lassa Virus; further: nearly all actives have a fitted effect of over 50% in size
# Conditions: Lassa virus pseudotype entry inhibition, cell reporter; activity change, negative = inhibition: at 37.9 µM (top of the series) unless noted
# On the % scale 0 is the no-effect control and ±100 the full control effect; potency means the concentration at half of the fitted maximal effect.
SMILES,Potency,"activity change, negative = inhibition"
CCN1CCCC1CNc1ncnc2c1[nH]c1ccc(Cl)cc12 (stereo not drawn),"inconclusive: 35.5 µM [inhibitor, single point]",–
CCN(CC)CCCOC(=O)C1(c2ccccc2)CCCC1,–,inactive: -10.4%
Cc1[nH]c2ccccc2c1C(=O)CSc1ncn[nH]1,"inconclusive: 1.26 µM [inhibitor, partial curve, poor fit]",–
COCCn1c(C)cc(C(=O)CSc2nc3nc(C)cc(C)n3n2)c1C,"inconclusive: 1 µM [inhibitor, partial curve, poor fit]",–
O=c1oc2ccccc2cc1-c1nc2c(s1)CCCC2,active: 2.91 µM,–
CCS(=O)(=O)N1Cc2ccccc2CC1C(=O)Nc1nc(C)cs1 (stereo not drawn),"inconclusive: 8.91 µM [inhibitor, partial curve, poor fit]",–
CCc1ccc(NC(=O)CSc2nc(=O)n(CCN(C)C)c3c2CCCC3)cc1,"inconclusive: 0.0891 µM [activator, full curve, poor fit]",–
COc1ccc(C(=O)NC(C)c2cc(OC)c(OC)cc2Br)cc1 (stereo not drawn),"inconclusive: 6.51 µM [activator, single point]",–
COc1ccc(-c2ccc(CCC(=O)O)n2-c2ccc(O)cc2)cc1,"inconclusive: 1.41 µM [activator, partial curve, poor fit]",–
O=c1c2ccccc2cnn1Cc1n[nH]c(=S)n1-c1ccccc1,"inconclusive: 4.47 µM [activator, full curve, poor fit]",–
CSc1nnc([C@H](Cc2c[nH]c3ccccc23)NC(=O)OC(C)(C)C)o1,"inconclusive: 35.5 µM [inhibitor, single point]",–
COc1ccc(NC(=O)CSc2nc3c(c(=O)n2C)SCC3)cc1OC,"inconclusive: 0.158 µM [activator, full curve, poor fit]",–
COc1ccc(/C=C/C(=O)c2cc(Br)ccc2OC(=O)c2ccco2)cc1OC,"inconclusive: 0.326 µM [inhibitor, full curve, poor fit]",–
O=C(OCc1ccccc1Cl)c1ccc(-c2nnn(Cc3ccc(F)cc3)n2)cc1,–,inactive: 3.7% [at 46.1 µM]
COc1ccc(C(=O)N2CCN(C)C(=O)[C@@H]2C)cc1OC1CCN(C(C)=O)CC1,"inconclusive: 0.0891 µM [inhibitor, full curve, poor fit]",–
CC1(C)CC(=O)C(Sc2ccccc2[N+](=O)[O-])=C(O)C1,–,inactive: -4.67%
Cc1c(C(=O)NN)sc(-c2ccccc2)c1C#N,"inconclusive: 10 µM [inhibitor, partial curve, poor fit]",–
Cn1cnc([N+](=O)[O-])c1Oc1ccc2ccccc2c1,"inconclusive: 11.2 µM [inhibitor, partial curve, poor fit]",–
C=CCOn1c(=O)c(-c2cc3ccccc3o2)[n+]([O-])c2ccccc21,–,inactive: 2.63%
Cc1ccc2nc3c(cc2c1)CC1(C(=O)N(C)C(=O)N(C)C1=O)C1CCCCN31 (stereo not drawn),–,inactive: -6.51%
Cc1c(NC(=O)C(C)OC(=O)COc2cccc3c2OC(C)(C)C3)c(=O)n(-c2ccccc2)n1C (stereo not drawn),"inconclusive: 1.26 µM [activator, single point]",–
Cc1ccc(CN2c3ccccc3-c3nc(SCC(=O)Nc4c(C)cc(C)cc4C)ncc3S2(=O)=O)cc1,"inconclusive: 22.4 µM [inhibitor, single point]",–

# Single records (already shown). Order of values: Potency | activity change, negative = inhibition
# COc1ccc(C(=O)N2CCN(C)C(=O)[C@@H]2C)cc1OC1CCN(C(C)=O)CC1 as listed: inconclusive: 0.0891 µM [inhibitor, full curve, poor fit] | –
# O=c1c2ccccc2cnn1Cc1n[nH]c(=S)n1-c1ccccc1 as listed: inconclusive: 4.47 µM [activator, full curve, poor fit] | –
# C=CCOn1c(=O)c(-c2cc3ccccc3o2)[n+]([O-])c2ccccc21 as listed: – | inactive: 2.63%

# Carrying on.

SMILES,Potency,"activity change, negative = inhibition"
CCCCC(C(=O)NC1CCCC1)N(C(=O)c1snc(C(N)=O)c1N)c1ccc(C)cc1 (stereo not drawn),–,inactive: -2.64% [at 46.1 µM]
CCN(CC)c1ccc(NC(=O)C2CC3CCC2C3)cc1 (stereo not drawn),–,inactive: 10.1%
COc1cc2c(cc1OC)C(COc1ccc(F)cc1)N(C(=O)Cc1ccccc1)CC2 (stereo not drawn),"inconclusive: 1.78 µM [inhibitor, full curve, poor fit]",–
CC(C)c1ccc(OCC(=O)N(Cc2ccccc2)c2ccccn2)cc1,"inconclusive: 32.6 µM [inhibitor, single point]",–
COC(=O)C1=CN(CCOC23CC4CC(CC(C4)C2)C3)C=C(C(=O)OC)C1c1ccsc1,"inconclusive: 2.82 µM [inhibitor, full curve, poor fit]",–
Oc1ccc(-n2nnnc2SCc2c(F)cccc2Cl)cc1,"inconclusive: 35.5 µM [inhibitor, single point]",–
COc1ccccc1-c1cc(C(F)(F)F)nc(S(=O)(=O)CCCC(=O)Nc2cc(C)on2)n1,–,inactive: -2.58%
NC(Cc1c[nH]c2ccccc12)C(=O)NCc1ccccc1 (stereo not drawn),–,inactive: -16.1% [at 46.1 µM]
CCCCCCn1c(SCC(=O)Nc2cc(C)on2)nc2ccccc2c1=O,"inconclusive: 20.6 µM [inhibitor, single point]",–
O=C(C1=C(O)C(=O)N(Cc2ccco2)C1c1cccc([N+](=O)[O-])c1)c1ccco1 (stereo not drawn),"inconclusive: 5.62 µM [activator, single point]",–
COc1ccc(C(C)=O)cc1CSc1nnc(Nc2ccccc2C)s1,–,inactive: -18.3%
CCOC(=O)c1cc(-c2ccccc2)sc1NC(=O)COC(=O)c1cccc(S(N)(=O)=O)c1,"inconclusive: 12.6 µM [inhibitor, single point]",–
COc1ccc(-c2cc(C(F)(F)F)nc(SCC(=O)NCc3cccs3)n2)cc1OC,"inconclusive: 0.891 µM [inhibitor, full curve, poor fit]",–
C=CCSC1=NNC(c2ccc(C(C)(C)C)cc2)=NN1,–,inactive: -1.37%
COc1ccc(-c2onc(C)c2C)cc1S(=O)(=O)Nc1cc(Cl)ccc1C,"inconclusive: 2.82 µM [inhibitor, single point]",–
COc1ccc(-c2cc3nc(C)c(CCC(=O)N4CCN(c5ccccc5F)CC4)c(C)n3n2)c(OC)c1,–,inactive: 9.83% [at 46.1 µM]
COc1ccccc1N1CCN(C2CCN(S(=O)(=O)c3ccc4ccccc4c3)CC2)CC1,"inconclusive: 29.1 µM [inhibitor, single point]",–
S=C1NCCOCCOCCOCCOCCNC(=S)N2CCOCCOCCN1CCOCC2,"inconclusive: 5.62 µM [activator, full curve, poor fit]",–
CNS(=O)(=O)c1cnccc1N1CCN(c2cccc(C(F)(F)F)c2)CC1,–,inactive: -0.57%
CCc1cccc(C)c1Nc1c(-c2cccs2)nc2nc(C)cc(C)n12,–,inactive: -0.837% [at 46.1 µM]
CC(C)OC(=O)c1ccc(NCc2cc(O)ccc2O)cc1Cl,active: 10 µM,–
